Measurements reported in PubChem BioAssay AID1259425 (University of Nebraska Medical Center, 2018).
Shown is an unselected part of about 14,000 reagents. Further read-outs or replicates are left out here. No sequences are given here. Not stated in the record: the time to read-out.

Aim: 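Compare each knockdown with KSR1 silencing using changes in marker transcripts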 (primary screen)
Cells: HCT116 human colon cancer cells
Knock-down reagent: siRNA pool against human genes, 50 nM siRNA
Measured: 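After 50 nM siRNA pool, branched-DNA assay measures six marker transcripts per well, minus blank, normalised to the geometric mean of two housekeeping transcripts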
Scale: BNIP3L mRNA: higher = more BNIP3L transcript after knockdown; NDRG1 mRNA: higher = more NDRG1 transcript after knockdown; BNIP3 mRNA: higher = more BNIP3 transcript after knockdown; ALDOC mRNA: higher = more ALDOC transcript after knockdown

target | BNIP3L mRNA, set 1 | NDRG1 mRNA, set 1 | BNIP3 mRNA, set 1 | ALDOC mRNA, set 1
PPP1R8 | 0.0839 | 0.119 | 0.228 | 0.0335
NIN | 0.0634 | 0.376 | 0.29 | 0.0338
ATXN2L | 0.0775 | 0.114 | 0.251 | 0.0226
MTMR6 | 0.0811 | 0.168 | 0.213 | 0.017
PHGDH | 0.0669 | 0.0822 | 0.17 | 0.0256
DEFB1 | 0.132 | 0.275 | 0.548 | 0.0673
BPIFB2 | 0.188 | 0.316 | 0.45 | 0.0557
KIR3DL1 | 0.0804 | 0.173 | 0.223 | 0.0281
TMEM39B | 0.121 | 0.222 | 0.332 | 0.0129
HIP1 | 0.083 | 0.356 | 0.208 | 0.0127
NEDD9 | 0.115 | 0.424 | 0.28 | 0.0202
OR8G2P | 0.0749 | 0.151 | 0.253 | 0.0245
WIPF1 | 0.0935 | 0.329 | 0.382 | 0.0138
SEC24B | 0.0772 | 0.201 | 0.292 | 0.0297
SLC23A1 | 0.0607 | 0.101 | 0.269 | 0.0219
ABHD5 | 0.0385 | 0.0637 | 0.285 | 0.00468
STX16 | 0.104 | 0.222 | 0.419 | 0.0382
PI4KB | 0.0412 | 0.217 | 0.397 | 0.0117
AKT1S1 | 0.0813 | 0.335 | 0.296 | 0.0294
TBX22 | 0.0941 | 0.0523 | 0.23 | 0.0153
POLR2H | 0.0882 | 0.617 | 0.336 | 0.0301
SAMSN1 | 0.0706 | 0.196 | 0.173 | 0.0323
NPBWR1 | 0.255 | 0.637 | 0.488 | 0.054
MSTN | 0.0546 | 0.0461 | 0.212 | 0.0206
ATOSA | 0.461 | 0.633 | 0.748 | 0.1
NTMT1 | 0.143 | 0.202 | 0.323 | 0.0292
HAND1 | 0.12 | 0.207 | 0.399 | 0.00776
SLC7A3 | 0.12 | 0.131 | 0.293 | 0.0258
ELP4 | 0.0526 | 0.139 | 0.166 | 0.0269
GNAL | 0.0602 | 0.132 | 0.299 | 0.0174
ROCK2 | 0.0417 | 0.127 | 0.22 | 0.00133
DMRTB1 | 0.336 | 0.822 | 0.488 | 0.00781
RUSF1 | 0.0731 | 0.515 | 0.341 | 0.0368
HCRTR1 | 0.0854 | 0.329 | 0.214 | 0.0337

3 of these entries in another layout.
| target | BNIP3L mRNA, set 1 | NDRG1 mRNA, set 1 | BNIP3 mRNA, set 1 | ALDOC mRNA, set 1 |
| --- | --- | --- | --- | --- |
| BPIFB2 | 0.188 | 0.316 | 0.45 | 0.0557 |
| KIR3DL1 | 0.0804 | 0.173 | 0.223 | 0.0281 |
| TMEM39B | 0.121 | 0.222 | 0.332 | 0.0129 |
